Patent US20250099420A1, “SMALL MOLECULE MODULATORS OF GPR139 COMPLEX” (University of Florida Research Foundation, Incorporated, priority 2022, published 2025)

Tested on: parental HEK cells
Assay: HEK parental Antagonist Counterscreen Assay (non-transfected cells, acetylcholine control)
Type: cell-based

| Structure (SMILES) | HEK antagonist activity Hill Slope |
| --- | --- |
| O=C(Nc1ccccc1C(=O)O)c1ccc(Oc2ccc([N+](=O)[O-])cc2)cc1 [SR-01000201144] | 8.01 |
| Cc1cccc(NC(=O)CCC(=O)OCc2ccc(Br)cc2)c1 [SR-01000258561] | 14.89 |
| O=c1c(-c2ccc(Cl)cc2)c(C(F)(F)F)oc2cc(O)ccc12 [SR-01000438114] | 13.82 |
| COc1cccc(OC)c1C(=O)Oc1ccc2c(=O)c(-c3ccc(Cl)cc3)c(C(F)(F)F)oc2c1 [SR-01000471218] | 10.22 |
| Cc1c(-c2cccc(NC(=O)C3c4ccccc4Oc4ccccc43)c2)nc2ncccn12 [SR-01000907648] | 8.81 |
